Measurements: doi:10.1101/2022.06.03.494746
Results are given in words; binding and its absence hold for the method and conditions named. Binding seen in cells or lysates may run through a third protein. These calls come from enrichment with a bait or labelling near it, and not all partners need be listed.

B1: CTC-… DOMAIN 3 (CID3) (protein, UniProt Q8L793 1-587)
chain: MKPVLHSGSSSNGFSHRRFEKEAWMNNAQPSVDNTENGWDAESVDTPSQKLLVYFTTCNIGHQVEVHLKNGSVYSGIFHAANVEKDFGIILKMACLIRDSRGTKSRTVSKPSSKLLKIPADELVQVIAKDLPLSSDSVSDSVQCEKPLELLTDSLISQFYNVDLERELKPWVPDEDVPDCSDLENVFDDPWKRGWNQFEVNKTLFGVTSTFDEELYTTKLERGPGTRELEEQALRIAREIVGENTRDIHVAEERGLQLSGKFDIDEETKYSSVCATNRFDDTCYEDDEEEEEDILLDCCNNLTFGDSSASDGKEPASTGKFYEDSWGDSLHLRSNKMVDQSWSNSNKHTRQLMSELPSKDFPVAGNNIRNESQLGEQRKSKFLGASLFKKPSEESVSGFEDAPPPVKPSFIDGRLGLLSDRAKSENSSGWPGSSISRNSENSAASSASNLPILSPSSSGSLSSEKSTLNPNAKEFKLNPNAKSFKPSPSATRPQSPQSPVFDGSFYYPPVPPMPGLHIRYGTGAAFPGQQHPMMYNNTTQLSPNQTYYSPNSPQYPQPMMVTQQRPILFMPPTPYQPEMPYKGRDSY
B2: argonaute1 (AGO1) (protein, UniProt O04379 1-1048)
chain: MVRKRRTDAPSEGGEGSGSREAGPVSGGGRGSQRGGFQQGGGQHQGGRGYTPQPQQGGRGGRGYGQPPQQQQQYGGPQEYQGRGRGGPPHQGGRGGYGGGRGGGPSSGPPQRQSVPELHQATSPTYQAVSSQPTLSEVSPTQVPEPTVLAQQFEQLSVEQGAPSQAIQPIPSSSKAFKFPMRPGKGQSGKRCIVKANHFFAELPDKDLHHYDVTITPEVTSRGVNRAVMKQLVDNYRDSHLGSRLPAYDGRKSLYTAGPLPFNSKEFRINLLDEEVGAGGQRREREFKVVIKLVARADLHHLGMFLEGKQSDAPQEALQVLDIVLRELPTSRYIPVGRSFYSPDIGKKQSLGDGLESWRGFYQSIRPTQMGLSLNIDMSSTAFIEANPVIQFVCDLLNRDISSRPLSDADRVKIKKALRGVKVEVTHRGNMRRKYRISGLTAVATRELTFPVDERNTQKSVVEYFHETYGFRIQHTQLPCLQVGNSNRPNYLPMEVCKIVEGQRYSKRLNERQITALLKVTCQRPIDREKDILQTVQLNDYAKDNYAQEFGIKISTSLASVEARILPPPWLKYHESGREGTCLPQVGQWNMMNKKMINGGTVNNWICINFSRQVQDNLARTFCQELAQMCYVSGMAFNPEPVLPPVSARPEQVEKVLKTRYHDATSKLSQGKEIDLLIVILPDNNGSLYGDLKRICETELGIVSQCCLTKHVFKMSKQYMANVALKINVKVGGRNTVLVDALSRRIPLVSDRPTIIFGADVTHPHPGEDSSPSIAAVVASQDWPEITKYAGLVCAQAHRQELIQDLFKEWKDPQKGVVTGGMIKELLIAFRRSTGHKPLRIIFYRDGVSEGQFYQVLLYELDAIRKACASLEAGYQPPVTFVVVQKRHHTRLFAQNHNDRHSVDRSGNILPGTVVDSKICHPTEFDFYLCSHAGIQGTSRPAHYHVLWDENNFTADGLQSLTNNLCYTYARCTRSVSIVPPAYYAHLAAFRARFYMEPETSDSGSMASGSMARGGGMAGRSTRGPNVNAAVRPLPALKENVKRVMFYC
B3: RH6 (protein, UniProt Q94BV4 1-528)
chain: MNNNNNNRGRFPPGIGAAGPGPDPNFQSRNPNPPQPQQYLQSRTPFPQQPQPQPPQYLQSQSDAQQYVQRGYPQQIQQQQQLQQQQQQQQQQQEQQWSRRAQLPGDPSYIDEVEKTVQSEAISDSNNEDWKATLKLPPRDNRYQTEDVTATKGNEFEDYFLKRDLLRGIYEKGFEKPSPIQEESIPIALTGSDILARAKNGTGKTGAFCIPTLEKIDPENNVIQAVILVPTRELALQTSQVCKELSKYLKIEVMVTTGGTSLRDDIMRLYQPVHLLVGTPGRILDLAKKGVCVLKDCAMLVMDEADKLLSVEFQPSIEELIQFLPESRQILMFSATFPVTVKSFKDRYLKKPYIINLMDQLTLMGVTQYYAFVEERQKVHCLNTLFSKLQINQSIIFCNSVNRVELLAKKITELGYSCFYIHAKMVQDHRNRVFHDFRNGACRNLVCTDLFTRGIDIQAVNVVINFDFPRTSESYLHRVGRSGRFGHLGLAVNLVTYEDRFKMYQTEQELGTEIKPIPSLIDKAIYCQ
B4: NF-X1-type zinc finger protein NFXL1 (protein, UniProt Q9SY59 1-1188)
chain: MSFQVRRDRSDDRSHRFNHQQTWIPRNSSTSSVVVNEPLLPPNTDRNSETLDAGSASRPVYLQRQHNASGPPSYNHHQRSSNIGPPPPNQHRRYNAPDNQHQRSDNIGPPQPNQHRRYNAPDNQHQRSDNSGPPQPYRHRRNNAPENQHQRSDNIGPPPPNRQRRNNASGTLPDNRQRVASRTRPVNQGKRVAKEENVVLTDPNLPQLVQELQEKLVKSSIECMICYDKVGRSANIWSCSSCYSIFHINCIKRWARAPTSVDLLAEKNQGDNWRCPGCQSVQLTSSKEISYRCFCGKRRDPPSDPYLTPHSCGEPCGKPLEKEFAPAETTEEDLCPHVCVLQCHPGPCPPCKAFAPPRSCPCGKKMVTTRCSERRSDLVCGQRCDKLLSCGRHQCERTCHVGPCDPCQVLVNATCFCKKKVETVICGDMNVKGELKAEDGVYSCSFNCGKPLGCGNHFCSEVCHPGPCGDCDLLPSRVKTCYCGNTRLEEQIRQSCLDPIPSCSNVCRKLLPCRLHTCNEMCHAGDCPPCLVQVNQKCRCGSTSRAVECYITTSSEAEKFVCAKPCGRKKNCGRHRCSERCCPLLNGKKNDLSGDWDPHVCQIPCQKKLRCGQHSCESLCHSGHCPPCLEMIFTDLTCACGRTSIPPPLSCGTPVPSCQLPCPIPQPCGHSDTHGCHFGDCPPCSTPVEKKCVGGHVVLRNIPCGLKDIRCTKICGKTRRCGMHACARTCHPEPCDSFNESEAGMRVTCRQKCGAPRTDCRHTCAALCHPSAPCPDLRCEFSVTITCSCGRITATVPCDAGGRSANGSNVYCAAYDEASVLQKLPAPLQPVESSGNRIPLGQRKLSCDDECAKLERKRVLQDAFDITPPNLEALHFSENSAMTEIISDLYRRDPKWVLAVEERCKFLVLGKARGSTSALKVHIFCPMQKDKRDTVRLIAERWKLGVSNAGWEPKRFTVVHVTAKSKPPTRIIGARGGAISIGGPHPPFYDSLVDMDPGLVVSFLDLPREANISALVLRFGGECELVWLNDKNALAVFHDHARAATAMRRLEHGSVYHGAVVVQSGGQSPSLNNVWGKLPGSSAWDVDKGNPWRRAVIQESDDSWGAEDSPIGGSSTDAQASALRSAKSNSPIVTSVNRWSVLEPKKASTSTLEPIAQIEESSSSKTTGKQPVEGSGEEVVDDWEKVCE
B5: NECROTIC SPOTTED LESIONS 1 (NSL1) (protein, UniProt Q9SGN6 1-612)
chain: MAFNNFTRLDAHSAAEKAVSVIGLGYDLCSDVRFSACKTTPDGSRLVEIDPTRNRDLIFPGGIVVNNVSSSIKCDKGERTRLRSDILSFNQMSEKFNQDMCLSGKIPSGMFNNMFAFSKCWPKDASSVKTLAYDGWFISLYSVEIVRKQLTLRDEVKREVPSSWDSAALAGFIEKYGTHVVVGVTMGGKDVIHVKQMRKSNHEPEEIQKMLKHWGDERFCVDPVESKSPASVYSGKPKEENLLQWGLQPFGTSVSSAVVMHTKNEEIMRVCIRRGGVDLGQSHERWLSTVSQAPNVISMCFVPITSLLSGLPGTGFLSHAVNLYLRYKPPIEELHQFLEFQLPRQWAPVYGDLPLGLRRSKQSSPSLQFSLMGPKLYVNTSKVDSGERPVTGLRFFLEGKKGNHLAIHLQHLSACPPSLHLSHDDTYEPIEEPVEKGYYVPVKWGIFSHVCTYPVQYNGARSDDTASIVTKAWLEVKGMGMRKVLFLRLGFSLDASAVTRKSCWDNLSTNSRKSGVFSMISTRLSTGLSPNPATTKPQSKIDINSAVYPRGPSPPVKPKLLSLVDTKEVMRGPEEQPGYWVVTGAKLCVEAGKISIKAKYSLLTVISEDSLV
B6: SMG7 (protein, UniProt A9QM73 1-1059)
chain: MMTLQMDKTTASSSWERAKSIYDEIAELANKRQKAGNPPDPNLLQLLREKYEAIILESHTFSEQHNIEIPLWQLHYKRIEYFRLHINRVLASSTSTAAQNVKGPSKAEQIAQLKLQFRTFLSEATGFYHDMILKIRSKYGLPLGSFSEDQQSQNLSDKDGKELAEVQKALKSCHRCLIYLGDLARYKGMYAEGDSRSRQYASASSYYLQAASLWPASGNPHHQLAIVASYSRDEFVTTYRYFRSLAVEYPFPTARDNLIVAFDKNRQSYEKLFVPSKDSSKRLTGKGRGKGADISLKDATLVAGPEKDKVTIANEMLKAFSIRFVHLNGILFTRTSLETFFDVLASTSSSLREVISLGSAKELTLGIDTSDSALFIVRVVTMLIFSVHNSKKETEGQSYAEIVQRVEPARNSLTASFELLGLVIEKCVQLGDPSSSYFLPGVLVFVEWLACCPDIALGSDPDDRQTAVRNSFWNQFVVFFNQVLSLGPTFIDDVEDETCFSNMSLYDERETENRLALWEDYELRGFLPLLPAQTILNFSRKHSFGTEGPKEKKARIKRIFAAGKALTSVIKVDQNHVYFDSKKKKFLVGVKPADDFLDSHSSPPKACNALQDNQVMIDHNSPIMQLDQQIYMGEEDDDDEVIVFKPLVTEKRKEASDQIYVPSGGFRKSDQVTTMGDFKALSGSDVAFHENQILQARGNASIQVPASVGANLLGPLQPSTQSQAMHMQQVQTQVQVPASVGANLLGLLLTSTQSQAMHMQQVQTQAVNPQPAQSLAASRLQPIQSQVAQPLPSRVVHFQQTQAQVSHVSPAHSQSTSFGGGSKWSPEEAASLASSLSGFAQLGNGHVMRNEMQGNHGVSYYPAHSLPVHQSYNGNGMGGMPYSQSRTPEAVFPPKIDPVLSSGVVADGLGVQSSLAKKNPISRAFRHLGPPPGFNSVPAKLQKEPAPGSELSGNNHLPVDDYSWLDGYQAQSSRGVGLNSSLNYATSGKPEHLGSTGNGLNGPANFPFPGKQVPTSQVQADFPYFQNPQKDNFVDKNHQSTQLPEQYQGQSTWSSRHFV
B7: RH8 (protein, UniProt Q8RXK6 1-505)
chain: MNNRGRYPPGIGAGRGAFNPNPNYQSRSGYQQHPPPQYVQRGNYAQNHQQQFQQAPSQPHQYQQQQQQQQQWLRRGQIPGGNSNGDAVVEVEKTVQSEVIDPNSEDWKARLKLPAPDTRYRTEDVTATKGNEFEDYFLKRELLMGIYEKGFERPSPIQEESIPIALTGRDILARAKNGTGKTAAFCIPVLEKIDQDNNVIQAVIIVPTRELALQTSQVCKELGKHLKIQVMVTTGGTSLKDDIMRLYQPVHLLVGTPGRILDLTKKGVCVLKDCSVLVMDEADKLLSQEFQPSVEHLISFLPESRQILMFSATFPVTVKDFKDRFLTNPYVINLMDELTLKGITQFYAFVEERQKIHCLNTLFSKLQINQSIIFCNSVNRVELLAKKITELGYSCFYIHAKMLQDHRNRVFHDFRNGACRNLVCTDLFTRGIDIQAVNVVINFDFPKNAETYLHRVGRSGRFGHLGLAVNLITYEDRFNLYRIEQELGTEIKQIPPHIDQAIYCQ
B8: ELC (protein, UniProt Q9LHG8 1-398)
chain: MVPPPSNPQQVQQFLSSALSQRGPSSVPYEESNKWLIRQHLLNLISSYPSLEPKTASFMHNDGRSVNLLQADGTIPMPFHGVTYNIPVIIWLLESYPRHPPCVYVNPTADMIIKRPHAHVTPSGLVSLPYLQNWVYPSSNLVDLVSDLSAAFARDPPLYSRRRPQPPPPSPPTVYDSSLSRPPSADQSLPRPFPPSPYGGGVSRVQVQHVHHQQQSDDAAEVFKRNAINKMVEMVHSDLVSMRRAREAEAEELLSLQAGLKRREDELNIGLKEMVEEKETLEQQLQIISMNTDILDSWVRENQGKTKNLVDLDVDNAFECGDTLSKQMLECTALDLAIEDAIYSLDKSFQDGVVPFDQYLRNVRLLSREQFFHRATGSKVRAAQMEVQVAAIAGRLHS

molecular target: DCP1-TurboID-6xHis-3xFLAG (Arabidopsis); assay: proximity labelling

binding, binds:
B1
B2
B3
B4
B5
B6
B7
B8
